In all, about 71,000 compounds went through this assay and about 310 (0.44%) were called active. The shares of active, inactive and inconclusive entries below differ from those in the screen. Calls follow the shape of the dose curve; as a rule, active = well fitted curve in either direction with a large enough effect; inconclusive = small, poorly fitted or top-dose-only effect, or another doubt; inactive = flat fitted curve, though single readings scatter. Where the call is inconclusive, the potency comes from a doubtful curve fit.
The compounds below were run on Hsp90 C-terminal peptide / TPR2A (Hop) interaction, human (assay: qHTS Assay for Disrupters of an Hsp90 Co-Chaperone Interaction). Details: AlphaScreen TPR2A-His6 binding biotin-Hsp90 C-terminal peptide; activity change, negative = inhibition: at 57 µM (top of the series) unless noted.
% is scaled to controls: 0 for no effect and ±100 for the full control effect; potency is read from the fitted curve at half-maximal effect.

Row | SMILES | activity change, negative = inhibition | Potency
1 | Cc1ccc2c(c1)CCCN2C(=O)Nc1ccc2c(c1)OCO2 | inconclusive: 19% | –
2 | CC(=O)C(C(C)=O)c1c(Cl)c(O)c(O)c2c(C(=O)c3ccccc3)coc12 | inactive | –
3 | Oc1ccc(CN2CCCc3ccccc32)c2cccnc12 | – | active: 3.16 µM
4 | CN1CCN(c2cc(-c3ccccc3Cl)ncn2)CC1 | inactive | –
5 | CN(C)c1ccc(N/C=C/C(=O)c2ccccc2)cc1 | – | inconclusive: 20 µM [inhibitor, partial curve]
6 | COC(=O)CCc1c(C)c(C(=O)c2ccco2)c2ccccn12 | inconclusive: -17% | –
7 | c1ccc(CNc2ccc3c(c2)ncn3C2CCCCC2)nc1 | – | inconclusive: 31.6 µM [inhibitor, partial curve]
8 | CCCc1ccc(OCC(=O)O)cc1 | inactive | –
9 | OCc1ccc(-c2nn(Cc3ccccc3)c3ccccc23)o1 | – | inconclusive: 15.8 µM [inhibitor, partial curve]
10 | CCCCC(=O)Nc1ccc(NC(=O)c2ccc3c(c2)OCO3)cc1OC | inactive | –
11 | CC(C)C[C@H](N)C(=O)O | inactive: -4.17% [at 11 µM] | –
12 | O=C(NCc1ccccn1)c1ccc2nc(-c3ccco3)c(-c3ccco3)nc2c1 | – | inconclusive: 25.1 µM [inhibitor, partial curve]
13 | CCOc1nc(-c2ccccc2)ccc1-c1noc(COC)n1 | – | inconclusive: 25.1 µM [activator, single point]
14 | CCCN1C=CC(=C2C(=O)c3ccccc3C2=O)C=C1 | inactive | –
15 | CCC(=O)N1CN(S(=O)(=O)c2ccc(C)cc2)CC1C (configuration not stated) | inconclusive: 50.4% | –
16 | CN(C)c1nc(N)nc(/C(C#N)=C/C2CC3C=CC2C3)n1 (configuration not stated) | – | inconclusive: 39.8 µM [inhibitor, single point]
17 | Cc1cccc(OCCCCCn2ccnc2)c1C | inactive | –
18 | NS(=O)(=O)c1cc2c(cc1Cl)N[C@@H]([C@@H]1C[C@@H]3C=C[C@H]1C3)NS2(=O)=O | inconclusive: 62.9% | –
19 | CN(C)S(=O)(=O)c1ccc(Nc2ccc(O)c3c2C(=O)c2c([N+](=O)[O-])ccc(O)c2C3=O)cc1 | – | inconclusive: 3.16 µM [inhibitor, partial curve]
20 | S=C1SCN(Cc2ccccn2)CN1Cc1ccco1 | – | inconclusive: 25.1 µM [inhibitor, single point]
21 | C=CCN1C(=O)CS/C1=C(\C#N)S(=O)(=O)c1ccc(C)cc1 | inconclusive: 4.65% | –

Random excerpt: four compounds from above, in no set order.
Row | SMILES | activity change, negative = inhibition | Potency
12 | O=C(NCc1ccccn1)c1ccc2nc(-c3ccco3)c(-c3ccco3)nc2c1 | – | inconclusive: 25.1 µM [inhibitor, partial curve]
5 | CN(C)c1ccc(N/C=C/C(=O)c2ccccc2)cc1 | – | inconclusive: 20 µM [inhibitor, partial curve]
8 | CCCc1ccc(OCC(=O)O)cc1 | inactive | –
14 | CCCN1C=CC(=C2C(=O)c3ccccc3C2=O)C=C1 | inactive | –

(more compounds)

Row | SMILES | activity change, negative = inhibition | Potency
22 | CCOC(=O)N1CCN(C(=O)CN(C2CCCCC2)S(=O)(=O)c2ccc(C)cc2)CC1 | inconclusive: 40.8% | –
23 | CC(C)(C)[Si](C)(C)c1c2c(nc3ccc(OCc4ccccc4)cc13)-c1cccc(=O)n1C2 | inactive | –
24 | O=C(Cc1c(O)c2ccccc2[nH]c1=O)NCc1ccc(F)cc1 | inconclusive: 50.7% | –
25 | CN(Cc1ccco1)c1nc(-c2cccc(C#N)c2)nc2ccccc12 | – | inconclusive: 25.1 µM [activator, single point]
26 | O=C(CSc1nc2c(sc3ccccc32)c(=O)n1CCO)NCC1CCCO1 (configuration not stated) | inactive | –
27 | COCCN(CCOC)S(=O)(=O)c1ccc(C(=O)Nc2nnc(C3CC3)o2)cc1 | – | inconclusive: 25.1 µM [inhibitor, partial curve]
28 | CCCc1cc(C(=O)Nc2sc(C)c(C)c2C(=O)OCC)no1 | inconclusive: 56.9% [at 2.3 µM] | –
29 | COc1ccccc1-c1cncnc1Nc1ccccc1 | inactive | –
30 | COC(=O)C(Cc1ccccc1)NC(=O)CSc1nc(N)cc(=O)[nH]1 (configuration not stated) | inconclusive: 46.5% | –
31 | CCc1nc2ccccc2c(C(=O)OC2CCOC2=O)c1C (configuration not stated) | inactive | –
32 | COc1cccc(Cn2c(=O)c(C)nc3cnc(N4CCNCC4)nc32)c1 | inactive | –
33 | CCC(=O)Nc1nonc1-c1nc2ccccc2n1Cc1ccccc1 | inconclusive: 54.4% | –
34 | O=C(Nc1ccc(O)cc1)C1CC=CCC1 (configuration not stated) | inconclusive: -15.4% | –
35 | O=C(CSc1ccc2c(c1)OCCO2)NCCN1C(=O)CSC1=O | inconclusive: 41.1% | –
36 | COc1ccc(-c2csc(N(CC3CCCO3)C(=O)c3cccs3)n2)cc1 (configuration not stated) | inactive | –
37 | COc1ccc(-c2nn(C)c(=O)c3ccccc23)cc1CNC(=O)c1ccco1 | inconclusive: 35.6% | –
38 | NNS(=O)(=O)c1cc(C(=O)O)cc(C(=O)O)c1 | inactive: 0.864% [at 11 µM] | –
39 | CCCC/C=C/C(NC(=O)OCc1ccccc1Cl)c1ccccc1 (configuration not stated) | – | inconclusive: 31.6 µM [activator, single point]
40 | CN1CCN(c2ncc3nc(-c4cc(F)cc(F)c4)c(=O)n(C4CC4)c3n2)CC1 | inconclusive: 99.5% | –
41 | COC1(OC)N=C(N)C2(C#N)C(c3ccc4c(c3)OCO4)C12C#N (configuration not stated) | – | inconclusive: 25.1 µM [inhibitor, partial curve]
42 | COc1ccc(CCNC(=O)CSc2nnc(Cc3csc(N)n3)n2C)cc1OC | – | inconclusive: 25.1 µM [inhibitor, partial curve]

One compound at a time (already shown).
`CCC(=O)Nc1nonc1-c1nc2ccccc2n1Cc1ccccc1` is entered as activity change, negative = inhibition: inconclusive: 54.4%
`COCCN(CCOC)S(=O)(=O)c1ccc(C(=O)Nc2nnc(C3CC3)o2)cc1` is entered as Potency: inconclusive: 25.1 µM [inhibitor, partial curve]

Next part:

Row | SMILES | activity change, negative = inhibition | Potency
43 | COc1ccc(NC(=O)N2CC[C@@]3(CCCN(C(=O)c4cccn4C)C3)C2)cc1 | inactive | –
44 | CC1CCCCC1NC(=O)C1Cc2ccccc2CN1S(C)(=O)=O (configuration not stated) | inconclusive: 40.4% | –
45 | CCOP(=O)(c1ccc(N(C)C)cc1)C(O)c1ccccc1OC (configuration not stated) | inconclusive: 54.9% | –
46 | N#CC(C(=O)NCCc1ccccc1)c1nc2ccccc2nc1N1CCCCC1 (configuration not stated) | inconclusive: 41.5% | –
47 | CCn1nc(CC(=O)Nc2nnc(CC(=O)N3CCCC3)s2)c2ccccc2c1=O | inconclusive: 44.1% | –
48 | CCC(=Nc1ccc(N)cc1)C1=C(O)C(C(=O)OC)C(C)(C)CC1=O (configuration not stated) | inactive | –
49 | CCCC(c1cc(C(C)(C)C)c(O)cc1C)c1cc(C(C)(C)C)c(O)cc1C | inactive: -7.11% [at 11 µM] | –
50 | CSc1nncc(-c2ccc(F)cc2)n1 | inconclusive: 81.5% | –
51 | Cc1noc(C)c1-c1nc(N(C)Cc2ccco2)c2ccccc2n1 | – | inconclusive: 25.1 µM [activator, partial curve]
52 | CCCCCCCCCCCC(=O)O | inconclusive: 44.2% | –
53 | O=C(NCCCn1ccnc1)C(F)(F)C(F)(F)C(=O)NCCCn1ccnc1 | – | active: 25.1 µM
54 | COc1ccc(NC(=O)CSc2c(C)nn(-c3nnc(C)c(=O)[nH]3)c2C)cc1 | – | inconclusive: 25.1 µM [inhibitor, partial curve]
55 | O=C(Nc1ccc(-n2nncc2-c2ccco2)cc1)c1cc2ccccc2oc1=O | inactive | –
56 | N#Cc1nn(-c2ccccc2)nc1N1CCCCC1 | – | inconclusive: 31.6 µM [activator, single point]
57 | COc1cccc(CN2CCN(c3cccc(C(F)(F)F)c3)CC2)c1OC | inconclusive: 64.3% | –
58 | O=S(=O)(NCCCCCCc1ccccc1)c1cccc2c(Cl)cccc12 | – | active: 39.8 µM [activator]
59 | C=CCn1c(=O)c(C(=O)NCCc2ccccc2)c(O)c2ccccc21 | – | inconclusive: 25.1 µM [activator, single point]
60 | O=C(Cc1cn2ccsc2n1)Nc1nc2c(s1)CN(Cc1ccccc1)CC2 | inconclusive: 2.09% | –
61 | Cc1cc(C)nc(SCc2ccc3nonc3c2)n1 | inconclusive: 55.6% | –
62 | COc1ccc(N2CCN(C(=O)Cn3nnc(-c4cccs4)n3)CC2)cc1 | inconclusive: 44.4% | –
63 | c1ccc(-c2nc3ccccc3o2)nc1 | inactive | –

Row | SMILES | activity change, negative = inhibition | Potency
64 | Cc1onc(-c2ccccc2)c1C(=O)OCC(=O)c1ccccc1 | – | inconclusive: 31.6 µM [activator, single point]
65 | CCn1c(SCC(=O)Nc2cc(NC(C)=O)ccc2OC)nnc1-c1ccccn1 | – | inconclusive: 31.6 µM [inhibitor, single point]
66 | CCCC[C@@H]1C[C@H]1C(NC(=O)Cc1ccccc1)c1ccc(-c2ccccc2)cc1 (some centres not stated) | inconclusive: 67.4% | –
67 | CC(=O)c1c(C)[nH]c(C(=O)N2CCc3ccccc3C2)c1C | inconclusive: 38.1% | –
68 | COc1ccc(NC(=O)Cn2nnc(C(=O)NCc3ccccc3)c2N)cc1Cl | inconclusive: 36.1% | –
69 | Cc1cccc(CNc2cc(-c3ccoc3)ncn2)c1 | inactive | –
70 | CCCn1c(-c2ccc(F)cc2)nc2c(NCCN(C)C)nc(C)nc21 | inactive | –
71 | Cc1ccsc1C1NC(=O)c2c(sc3c2CCN(C)C3)N1 (configuration not stated) | – | inconclusive: 39.8 µM [inhibitor, single point]
72 | Cc1nnc(SCC(=O)Nc2sccc2C(N)=O)n1Cc1ccccc1 | inconclusive: 40.4% | –
73 | Oc1ccccc1-c1nnc(COc2ccccc2)o1 | inactive | –
74 | O=C(Nc1nc(-c2ccco2)c(-c2ccco2)s1)C1CC(=O)N(c2ccc3c(c2)OCCO3)C1 (configuration not stated) | – | inconclusive: 25.1 µM [inhibitor, partial curve]
75 | Cc1ccc2nc3c(cc(C(=O)NCc4ccccc4)c(=N)n3CCCn3ccnc3)c(=O)n2c1 | inconclusive: 20.8% | –
76 | Cc1nnc(NC(=O)C(C)Oc2ccc3c(C)cc(=O)oc3c2)s1 (configuration not stated) | inconclusive: 35.2% | –
77 | CCN(CC)c1ncnc2c1cnn2C | inconclusive: 86% | –
78 | COc1cc2c(cc1OC)-c1cc3nc4ccccc4nc3n1C(C)(C)C2 | – | inconclusive: 15.8 µM [inhibitor, partial curve]
79 | CC1=C2C(=O)OC(c3ccoc3)C2(C)CCC1 (configuration not stated) | inconclusive: 86.8% | –
80 | O=C1OC2(c3ccc(O)cc3Oc3cc(O)ccc32)c2c1c(-c1ccccc1)c(-c1ccccc1)c(-c1ccccc1)c2-c1ccccc1 | – | inconclusive: 3.98 µM [inhibitor, single point]
81 | CCOC(=O)C1CCN(S(=O)(=O)c2cccc3nonc23)CC1 | inactive | –
82 | CCCOC(=O)c1c(-c2ccccc2)nc(CC)c(C(=O)SCC)c1CCC | – | inconclusive: 25.1 µM [activator, partial curve]

From PubChem BioAssay AID595 (National Center for Advancing Translational Sciences (NCATS), 2007)
